# Earlier results, collected in patent US20240261296A1, “THERAPEUTIC MODALITIES FOR INHIBITING PANCREATIC BETA CELL IMPAIRMENT AND TREATING DIABETES” (Hadasit Medical Research Serices & Development Ltd., priority 2021, published 2024).
# For at least one compound, name, drawing or mass did not settle the structure.
# Test system: rat islets
# Conditions: cited from earlier work
smiles,measurement,value
CCCCC(C)(O)C/C=C/[C@H]1[C@H](O)CC(=O)[C@@H]1CCCCCCC(=O)OC (mixture of isomers) [Misoprostol],glucose-induced insulin secretion,inhibition of glucose-induced insulin secretion
